Primary screen of a compound library

The values are deposited in ChEMBL (CHEMBL3988442, “University of Dundee, Small-Polar-MMV Screening Library” (2021)).

Mtb cholesterol medium: 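Growth of Mycobacterium tuberculosis over 4 days (cholesterol / DPPC medium with tyloxapol); the read-out is not stated. Concentration: 50 µM. Higher reads as more growth inhibition (inferred: compounds with an IC50 in retests scored well above the rest). About 69,000 compounds were tested under these conditions; 0.54% (about 370) showed 50% or more at least once.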
Mtb glucose medium: 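Growth of Mycobacterium tuberculosis over 3 days (7H9 medium with glucose and tyloxapol); the read-out is not stated. Tested at 50 µM. Higher reads as more growth inhibition (inferred: compounds with an IC50 in retests scored well above the rest). About 69,000 compounds were tested under these conditions; 1.1% (about 760) showed 50% or more at least once.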

Each number is a percent effect as filed.
How 0% and 100% were set is not recorded. Most values in the screen are low, and negative values occur.
Compounds were drawn at random from those tested, without regard to their results.
Two or more numbers in one place are separate tests of the same structure; such repeats can differ widely.

structure,Mtb cholesterol medium,Mtb glucose medium
CC(=O)Nc1nc(C2CCN(C(C)=O)CC2)cs1,-27.46%,-22.41%
O=C(C1=CCCC1)N1CC[C@]2(C[C@H](OCc3cccnc3)CO2)C1.O=C(O)C(F)(F)F,17.06%,0.4317% and 7.469%
O=C(O)C(F)(F)F.[H][C@@]12COC[C@]1(C(=O)NCc1cccs1)CN(c1ncccn1)C2,-13.51%,3.566%
O=C(CCc1ccccc1Br)NS(=O)(=O)c1ccc2c(c1)OCCO2,-15.65%,-3.063%
Cc1nc(CN2Cc3nccn3CC(CN3CCCC3)C2)cs1.O=C(O)C(F)(F)F.O=C(O)C(F)(F)F (configuration not stated),1.291%,19.16% and -0.5272%
CC(C)=Cc1c(-c2ccccc2)ncn1CCN(C)S(C)(=O)=O,-12.6%,-5.734%
CCCc1ccc(CN2CCC3(CCC(=O)N(CCCOC)C3)CC2)o1,-31.54%,-23.64%
CCOc1ccc(-c2ccc3c(c2)OCO3)cc1C(N)=O,3.9%,17.44% and 9.268%
CCCc1nc(CNC2(c3nccs3)CCCC2)cs1,-15.67%,-24.58% and -0.8408%
CCC(Nc1nnnn1-c1ccccc1)C(=O)NC1CCSCC1 (configuration not stated),13.16%,23.4%
CCC1CN(C(=O)NCc2cccnc2-n2cccn2)CCO1 (configuration not stated),-8.721%,2.124%
CC1CN(C(=O)c2ccn(-c3cccc(Cl)c3)n2)CCO1 (configuration not stated),-4.799%,26.31%
CN(Cc1cccc(OC(F)(F)F)c1)C(=O)c1ccncc1F,-5.055%,-1.801%
Cc1ccc(C(=O)N2CCC3(CC2)COC(COc2ccccn2)C3)o1.O=C(O)C(F)(F)F (configuration not stated),-2.825%,-14.93%
O=C(O)C(F)(F)F.O=C(O)C(F)(F)F.O=C(O)c1cc2c(nc1-c1ccoc1)CCN(Cc1ccco1)CC2,-30.42%,-19.74%
Cn1cnnc1SCCCNC(=O)Nc1ncccn1,-6.15%,-9.224% and -39.46%
O=C1CCC(=O)N1CCN1CCN(c2cc(F)ccc2F)CC1,-15.44%,3.465% and -1.238%
[H][C@@]12C[C@H](C(=O)NCc3ccccc3)[C@@]([H])(CN(C(=O)NC3CCCC3)C1)O2,-23.4%,-22.67%
Cc1c(-c2ccccc2)ncn1CCCNc1cccnc1,25.09%,15.37%
CC(C(=O)N1CCc2ccccc2C1)N(C)Cc1cscn1 (configuration not stated),4.661%,5.945% and -0.2469%
COCCN(Cc1sccc1C)C(=O)COc1cccnc1,-7.994%,12.22%
CC(C)CC(NS(C)(=O)=O)C(=O)N(C)Cc1nnc2n1CCC2 (configuration not stated),-0.3189%,-15.78%
O=C1CCCCN1CCC(=O)N1CCCCC1c1ccc(F)cc1 (configuration not stated),0.6258%,0.4633% and -0.4952%
CNC(=O)COC1COC2(CCN(c3ccc(C)nn3)CC2)C1.O=C(O)C(F)(F)F (configuration not stated),14.19%,1.434% and 27.63%
CC(=O)c1cc(C(=O)N2CCN(C)Cc3ccccc32)n(C)c1,-12.66%,-26.82%
CCC(NC(=O)C1CC1)c1ccccc1OCC(=O)N1CCCC1 (configuration not stated),6.443%,-1.246%
CC(=O)N(Cc1noc(C)n1)C1CCN(CC(=O)N(C)C2CC2)C1 (configuration not stated),-3.503%,11.42%
Cc1cc(NC(=O)NCC2COc3ccccc3C2)no1 (configuration not stated),-16.67%,-3.227%
c1ccc(C(NCc2nnc(-c3ccco3)o2)C2CCC2)cc1 (configuration not stated),39.37%,52.25%
CC1c2ncc(Cn3cccn3)n2CCN1S(=O)(=O)C1CC1 (configuration not stated),1.242%,31.42%
Fc1ccccc1Oc1nccnc1C1CCCN(C2CCOCC2)C1 (configuration not stated),-14.36%,-1.207%
[H][C@]12CC[C@]([H])(CN(S(=O)(=O)c3cc(Cl)ccc3OC)C1)N(C)C2=O,-13.53%,25.3%
NCc1csc(CCc2ccccc2)n1,12.46%,9.179% and 13.84%
CCOc1ccccc1OC1CCN(C(=O)c2cc[nH]n2)CC1,-26.01%,0.154%
COc1c(CNC2CCN(C(C)(C)C)CC2)c(C(C)C)nn1C,0.5603%,0.8972%
O=C(NC1CCS(=O)(=O)C1)c1ccc(-c2ccc(F)cc2)s1 (configuration not stated),-38.41%,-27.71%
COCC(=O)N1CCc2ncc(Cn3cncn3)n2CC1,-4.631% and -2.615%,-26.09%
CC(C)CCn1[nH]c(CNc2ccccc2)nc1=O,9.515%,16.81% and 6.341%
CCCn1nnnc1COc1ccc(C(=O)OC)cc1,29.38%,10.18%
Cc1nc(C)n(CC2CCCN2Cc2ccn(-c3ccccc3)n2)n1 (configuration not stated),10.35%,32.3%
CN1CCC(C(=O)NCCC2CN(c3cnn(C)c(=O)c3)CCO2)CC1 (configuration not stated),-7.036% and -7.316%,-18.56%
CC1(C)Cc2nc(C(C)(C)C)ncc2C(NC(=O)C2(N)CC2)C1 (configuration not stated),-10.33%,5.147%
O=C(c1cccnc1)N1Cc2ccccc2OCC1Cn1ccnc1 (configuration not stated),4.413%,8.855%
Cc1ccc2nc3n(c2c1)[C@@H](CNC(=O)c1ccncc1)COC3,-13.94%,-4.317% and -23.77%
c1ccc(Cc2n[nH]c(C3CCOC3)n2)cc1 (configuration not stated),2.363%,-25.88%
Cc1ccccc1-c1noc(CN2CCn3c(nnc3C3CC3)C2)n1,-5.945%,-33.65%
CC(C)c1csc(C2CCCN(C(=O)Cn3ccccc3=O)C2)n1 (configuration not stated),10.1%,-12.6%
CC(NCc1cnc(C2CCC2)s1)c1ccccc1-n1cccn1 (configuration not stated),-0.1998%,25.19%
Cc1ccc(C(=O)NCc2ccc(N(C)C)cc2)cn1,-10.15%,-0.3194%
COC(=O)[C@H]1CCCCN1C(=O)c1cccc(-n2cccn2)c1,2.16% and 7.684%,-3.646%
Cc1sc(-c2ccco2)nc1C(=O)N(CC1CCOC1)C1CC1 (configuration not stated),-23.35%,-11.33%
O=C(NCC1CCS(=O)(=O)C1)c1ccc2cccc(Cl)c2n1 (configuration not stated),-1.966%,8.489%
O=C(O)C(F)(F)F.O=C(O)C(F)(F)F.[H][C@@]12CCCO[C@]1([H])[C@H](N1CCCC1)CN(Cc1ccco1)C2,-15.62%,-7.114%
N#Cc1cn(C2CC2)c(=O)n(Cc2noc(-c3cccs3)n2)c1=O,-7.34%,10.85%
Cc1csc(C(C)(C)NCC(=O)N2CCCC(C(N)=O)C2)n1 (configuration not stated),-12.71%,-23.05%
O=C(Cn1cc(Cl)cn1)Nc1ccc2c(c1)OCCCO2,-14.07%,-2.336%
CC(C)N(CCNC(=O)N1CCCC(N(C)C)C1)C1CC1 (configuration not stated),-5.846%,-9.808%
Cc1cnn(CC2CCCCN2C(=O)c2ccc3c(c2)nnn3C)c1 (configuration not stated),20.07%,7.322%
Cn1cc(S(=O)(=O)Nc2ccc3[nH]c(C4CCC4)nc3c2)cn1,15.32%,8.432% and 1.441%
CC(C)(C)S(=O)(=O)c1ccc(N2CCN(c3ccccc3)CC2)nn1,-3.06%,7.567% and 22.3%
CCc1cnc(N2CCCOC(CN3CCCC3)C2)nc1 (configuration not stated),-0.1294%,11.65%
c1cn(Cc2nnc(C3CCN(C4CCNCC4)CC3)n2C2CC2)cn1,-14.33% and 10.89%,2.06%
CCC(NC(=O)c1cc(NC(C)=O)ccc1Cl)c1cc(C)ccn1 (configuration not stated),27.5%,-18.6% and 0.6447%

7 of the entries, repeated:

| structure | Mtb cholesterol medium | Mtb glucose medium |
|---|---|---|
| `CC1CN(C(=O)c2ccn(-c3cccc(Cl)c3)n2)CCO1` (configuration not stated) | -4.799% | 26.31% |
| `CC(C)CC(NS(C)(=O)=O)C(=O)N(C)Cc1nnc2n1CCC2` (configuration not stated) | -0.3189% | -15.78% |
| `O=C(CCc1ccccc1Br)NS(=O)(=O)c1ccc2c(c1)OCCO2` | -15.65% | -3.063% |
| `COCC(=O)N1CCc2ncc(Cn3cncn3)n2CC1` | -4.631% and -2.615% | -26.09% |
| `CC(C)=Cc1c(-c2ccccc2)ncn1CCN(C)S(C)(=O)=O` | -12.6% | -5.734% |
| `CCCn1nnnc1COc1ccc(C(=O)OC)cc1` | 29.38% | 10.18% |
| `Cn1cc(S(=O)(=O)Nc2ccc3[nH]c(C4CCC4)nc3c2)cn1` | 15.32% | 8.432% and 1.441% |